According to PMC7507497:
These are yes or no findings as the source states them, for the method shown. In cells and extracts the contact can be indirect. Some results given as binding are weak or reduced against the parent protein; the word gives no strength.

Tests used:
FLAG-tagged AGO1 (human) = FLAG-tagged AGO1 (human) (UniProt Q9UL18); assay: co-IP; anti-FLAG M2 IP of FLAG-AGO1 or FLAG-AGO1x from total cell lysates, SDS-PAGE and Western blotting
[1] = target: T1, polyribonucleotide nucleotidyltransferase 1 (PNPT1) (human (endogenous in MDA-MB-231)) (UniProt Q8TCS8); assay: co-IP; reciprocal IP with PNPT1 antibody against IgG from control and mutant MDA-MB-231 cells, done like the AGO1x IP; Western blotting; three biological replicates
T1 sequence: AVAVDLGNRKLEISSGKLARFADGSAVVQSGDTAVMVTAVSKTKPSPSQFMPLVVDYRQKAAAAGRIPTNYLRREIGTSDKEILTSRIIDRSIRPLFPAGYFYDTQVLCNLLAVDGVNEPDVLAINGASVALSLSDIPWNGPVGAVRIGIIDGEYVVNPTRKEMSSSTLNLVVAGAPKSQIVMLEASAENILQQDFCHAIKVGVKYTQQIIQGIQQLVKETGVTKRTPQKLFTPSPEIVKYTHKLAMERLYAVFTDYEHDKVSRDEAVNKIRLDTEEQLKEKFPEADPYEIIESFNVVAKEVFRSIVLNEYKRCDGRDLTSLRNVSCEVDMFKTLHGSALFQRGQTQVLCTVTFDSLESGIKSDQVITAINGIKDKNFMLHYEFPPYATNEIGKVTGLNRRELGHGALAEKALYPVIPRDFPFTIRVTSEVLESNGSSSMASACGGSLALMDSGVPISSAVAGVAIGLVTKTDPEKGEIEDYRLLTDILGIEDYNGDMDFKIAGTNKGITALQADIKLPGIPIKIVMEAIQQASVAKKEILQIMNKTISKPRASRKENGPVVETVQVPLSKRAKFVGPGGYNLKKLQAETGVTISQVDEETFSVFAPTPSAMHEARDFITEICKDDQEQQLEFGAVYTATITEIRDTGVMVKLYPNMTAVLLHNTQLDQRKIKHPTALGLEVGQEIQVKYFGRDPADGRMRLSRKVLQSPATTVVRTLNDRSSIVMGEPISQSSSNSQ

TNRC6B/GW182 (from UniProt Q9UPQ9 1-1833)
binding (FLAG-tagged AGO1 (human)): binds

B1: fibrillarin (FBL) (protein, UniProt P22087 1-321)
chain: MKPGFSPRGGGFGGRGGFGDRGGRGGRGGFGGGRGRGGGFRGRGRGGGGGGGGGGGGGRGGGGFHSGGNRGRGRGGKRGNQSGKNVMVEPHRHEGVFICRGKEDALVTKNLVPGESVYGEKRVSISEGDDKIEYRAWNPFRSKLAAAILGGVDQIHIKPGAKVLYLGAASGTTVSHVSDIVGPDGLVYAVEFSHRSGRDLINLAKKRTNIIPVIEDARHPHKYRMLIAMVDVIFADVAQPDQTRIVALNAHTFLRNGGHFVISIKANCIDSTASAEAVFASEVKKMQQENMKPQEQLTLEPYERDHAVVVGVYRPPPKVKN
binding [1]: binds
